Experimental findings from article PMC3975076, “High-throughput binding characterization of RNA aptamer selections using a microplate-based multiplex microcolumn device” are described below.

Protein sequences, listed by entry. Tags and fused reporters are not part of them. Lines headed by an entry give the natural chain unless they say otherwise; changes in a name come on top.
UniProt Q00613: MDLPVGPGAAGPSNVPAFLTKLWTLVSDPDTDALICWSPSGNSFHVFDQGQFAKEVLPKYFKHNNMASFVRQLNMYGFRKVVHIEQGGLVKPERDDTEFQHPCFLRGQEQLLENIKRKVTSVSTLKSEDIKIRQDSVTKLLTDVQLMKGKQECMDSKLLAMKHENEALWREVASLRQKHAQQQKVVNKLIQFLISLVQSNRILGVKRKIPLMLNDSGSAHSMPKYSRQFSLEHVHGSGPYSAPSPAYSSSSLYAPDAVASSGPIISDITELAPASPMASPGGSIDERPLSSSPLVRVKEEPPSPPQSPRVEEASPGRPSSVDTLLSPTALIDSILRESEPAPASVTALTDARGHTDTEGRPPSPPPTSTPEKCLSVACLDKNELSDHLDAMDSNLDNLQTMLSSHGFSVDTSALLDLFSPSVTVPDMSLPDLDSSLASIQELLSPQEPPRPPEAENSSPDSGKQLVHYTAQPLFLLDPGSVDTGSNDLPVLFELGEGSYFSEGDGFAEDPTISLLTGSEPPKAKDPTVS

Common to all, as to assay: affinity microcolumn + qPCR
For orientation: Quantitative PCR measures a nucleic acid by following its amplification.

One series concerns the target T1, NELF-E (Drosophila) (UniProt P92204).
T1 sequence (looked up, limits assumed): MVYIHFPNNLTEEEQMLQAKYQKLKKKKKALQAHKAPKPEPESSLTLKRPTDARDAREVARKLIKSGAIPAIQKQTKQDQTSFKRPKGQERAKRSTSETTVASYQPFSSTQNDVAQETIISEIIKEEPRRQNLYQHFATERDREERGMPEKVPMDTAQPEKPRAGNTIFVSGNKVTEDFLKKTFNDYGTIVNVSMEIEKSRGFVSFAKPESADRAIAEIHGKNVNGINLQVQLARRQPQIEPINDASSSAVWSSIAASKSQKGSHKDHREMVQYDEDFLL
As to conditions: serial: 4.75 nM N70 library + 50 pM each aptamer/BBS, 1 mL, recombinant protein, protein details: His6.

Series [1] addresses hHSF1 (heat shock factor 1) (human) (UniProt Q00613). Conditions: serial: 4.75 nM N70 library + 50 pM each aptamer/BBS, 1 mL, recombinant protein, protein details: GST.
A further series has as its system GFP. Conditions: value is average over all 7 other targets; serial: 4.75 nM N70 library + 50 pM each aptamer/BBS, 1 mL; recombinant protein; protein details: His6; counted as no binding.
Another series deals with UBLCP1. Conditions: average of Ni-NTA targets, serial: 4.75 nM N70 library + 50 pM each aptamer/BBS, 1 mL, recombinant protein, protein details: His.
Where [2] appears, read: value is average over all 7 other targets, counted as no binding.
[3] abbreviates: average of non-Ni-NTA targets, background.

For at least one entry, the source does not settle the construct or the ends of the probe. For some of these results: Protein sequences can lack the tags named with them.

With “AGCUUCUGGACUGCGAUGGGAGCACGAAACGUCGUGGCGCAAUUGGGUGGGGAAAGUCCUUAAAAGAGGGCCACCACAGAAGCU [GFPapt (AP3-1)]”, the binding signal (fold enrichment over N70 library) (with NELF-E (Drosophila) (setting [2]); in series [1] (setting [2])) was 0.6 each time.
Consider “GGGAAUGGAUCCACAUCUACGAAUUCAAUCAAGUCCCCAGACUCAGCAACACUGGACAGCGAUAUGCAGAUAACCAAGACCAAUUCACUCCAGUUCACUGCAGACUUGACGAAGCUU [HSFapt]”, for which the binding signal (fold enrichment over N70 library) with GFP worked out at 2; in the series with NELF-E (Drosophila) (setting [2]), 2; in series [1] (hHSF1 0.6 ug/uL resin, serial), 232.
For “GGGAAUGGAUCCACAUCUACGAAUUCCCAACGACUGCCGAGCGAGAUUACGCUUGAGCGCCCCACUGAGGAUGCCCACGGGCGAUUGGGGCACGGCUUCACUGCAGACUUGACGAAGCUU [NELFapt]”, the binding signal (fold enrichment over N70 library) (with GFP; in series [1] (setting [2])) was 1.6 in each case.
As for “GGGAAUGGAUCCACAUCUACGAAUUCCGAAGCUCGUGACGGUACCUCCUAAAAUGUCCAUGGGGAAGGGAGGGAAUGGGAAGGACAAUCGGACACCGUUCACUGCAGACUUGACGAAGCUU [BBS2]”, the binding signal (fold enrichment over N70 library) in the series with NELF-E (Drosophila) (average of Ni-NTA targets, attributed to Ni-NTA resin) is 311; in the series on UBLCP1 (attributed to Ni-NTA resin), 311; in series [1] (setting [3]), 13.
On to “GGGAAUGGAUCCACAUCUACGAAUUCCGCAGGGCUAGCCGCAUGCUCAGGCCUGGCGGGUAGGGAGUUAGGGUAGGGAGACCAGGAGAGCUGGCUUCACUGCAGACUUGACGAAGCUU [BBS1]”, for which the binding signal (fold enrichment over N70 library) in the series with NELF-E (Drosophila) (average of Ni-NTA targets, attributed to resin) stood at 5.1; with UBLCP1 (attributed to resin), 5.1; in series [1] (setting [3]) it was 1.7.
